Experimental data published in article PMC5131825.

Amino acid sequences for entries named in this document (tags omitted).
UniProt Q8NHY6: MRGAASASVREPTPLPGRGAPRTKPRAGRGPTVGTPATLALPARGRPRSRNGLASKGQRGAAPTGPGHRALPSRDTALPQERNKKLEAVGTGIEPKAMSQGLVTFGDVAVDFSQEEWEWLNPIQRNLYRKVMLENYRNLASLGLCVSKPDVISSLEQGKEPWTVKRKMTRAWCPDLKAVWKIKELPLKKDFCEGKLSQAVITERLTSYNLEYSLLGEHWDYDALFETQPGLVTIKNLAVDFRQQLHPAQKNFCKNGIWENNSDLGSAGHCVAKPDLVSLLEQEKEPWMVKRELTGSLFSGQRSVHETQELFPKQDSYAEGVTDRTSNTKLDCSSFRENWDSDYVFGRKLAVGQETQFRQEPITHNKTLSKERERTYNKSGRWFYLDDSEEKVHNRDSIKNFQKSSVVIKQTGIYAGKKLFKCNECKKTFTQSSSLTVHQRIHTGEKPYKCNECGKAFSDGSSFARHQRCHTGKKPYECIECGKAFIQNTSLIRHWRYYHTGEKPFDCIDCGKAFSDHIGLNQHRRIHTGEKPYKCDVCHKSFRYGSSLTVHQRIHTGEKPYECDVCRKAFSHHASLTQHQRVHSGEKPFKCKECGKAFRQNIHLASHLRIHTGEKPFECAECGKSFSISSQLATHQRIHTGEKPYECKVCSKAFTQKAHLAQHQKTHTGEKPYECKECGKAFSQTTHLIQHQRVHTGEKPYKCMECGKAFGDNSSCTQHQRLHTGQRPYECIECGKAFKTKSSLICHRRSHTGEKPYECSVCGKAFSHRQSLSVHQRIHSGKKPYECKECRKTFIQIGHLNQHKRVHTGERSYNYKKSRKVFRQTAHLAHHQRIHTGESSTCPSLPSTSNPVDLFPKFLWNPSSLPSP
UniProt Q86XU0: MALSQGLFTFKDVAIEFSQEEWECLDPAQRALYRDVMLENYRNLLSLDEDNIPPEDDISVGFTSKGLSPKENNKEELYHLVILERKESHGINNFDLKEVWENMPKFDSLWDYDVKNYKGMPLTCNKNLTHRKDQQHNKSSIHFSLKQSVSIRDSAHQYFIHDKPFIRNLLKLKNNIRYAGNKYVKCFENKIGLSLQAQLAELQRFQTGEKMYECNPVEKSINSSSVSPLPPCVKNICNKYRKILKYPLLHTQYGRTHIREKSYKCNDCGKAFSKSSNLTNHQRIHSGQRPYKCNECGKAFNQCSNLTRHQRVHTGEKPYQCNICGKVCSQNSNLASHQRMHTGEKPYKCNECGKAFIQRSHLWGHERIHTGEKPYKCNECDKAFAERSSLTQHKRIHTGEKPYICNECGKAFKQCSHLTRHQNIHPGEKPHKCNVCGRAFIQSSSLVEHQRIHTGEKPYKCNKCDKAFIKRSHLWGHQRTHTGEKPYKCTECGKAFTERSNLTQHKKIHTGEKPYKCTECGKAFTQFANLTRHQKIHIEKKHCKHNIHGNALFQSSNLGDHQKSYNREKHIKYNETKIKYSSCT
UniProt Q14593: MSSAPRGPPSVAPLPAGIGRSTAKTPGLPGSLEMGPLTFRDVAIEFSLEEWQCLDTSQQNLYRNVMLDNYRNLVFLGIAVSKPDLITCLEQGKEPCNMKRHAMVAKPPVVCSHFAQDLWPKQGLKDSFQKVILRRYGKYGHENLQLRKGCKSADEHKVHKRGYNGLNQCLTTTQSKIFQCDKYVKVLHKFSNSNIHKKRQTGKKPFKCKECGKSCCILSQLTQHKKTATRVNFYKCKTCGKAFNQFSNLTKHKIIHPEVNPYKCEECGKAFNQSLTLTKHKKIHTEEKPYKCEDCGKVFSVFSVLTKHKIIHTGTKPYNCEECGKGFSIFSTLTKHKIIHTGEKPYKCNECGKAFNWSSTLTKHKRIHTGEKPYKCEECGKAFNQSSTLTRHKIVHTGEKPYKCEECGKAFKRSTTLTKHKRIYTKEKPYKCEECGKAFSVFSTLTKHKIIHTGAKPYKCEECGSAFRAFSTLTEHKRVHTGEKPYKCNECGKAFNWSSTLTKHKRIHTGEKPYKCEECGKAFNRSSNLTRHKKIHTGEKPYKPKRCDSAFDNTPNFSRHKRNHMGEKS
UniProt Q12888: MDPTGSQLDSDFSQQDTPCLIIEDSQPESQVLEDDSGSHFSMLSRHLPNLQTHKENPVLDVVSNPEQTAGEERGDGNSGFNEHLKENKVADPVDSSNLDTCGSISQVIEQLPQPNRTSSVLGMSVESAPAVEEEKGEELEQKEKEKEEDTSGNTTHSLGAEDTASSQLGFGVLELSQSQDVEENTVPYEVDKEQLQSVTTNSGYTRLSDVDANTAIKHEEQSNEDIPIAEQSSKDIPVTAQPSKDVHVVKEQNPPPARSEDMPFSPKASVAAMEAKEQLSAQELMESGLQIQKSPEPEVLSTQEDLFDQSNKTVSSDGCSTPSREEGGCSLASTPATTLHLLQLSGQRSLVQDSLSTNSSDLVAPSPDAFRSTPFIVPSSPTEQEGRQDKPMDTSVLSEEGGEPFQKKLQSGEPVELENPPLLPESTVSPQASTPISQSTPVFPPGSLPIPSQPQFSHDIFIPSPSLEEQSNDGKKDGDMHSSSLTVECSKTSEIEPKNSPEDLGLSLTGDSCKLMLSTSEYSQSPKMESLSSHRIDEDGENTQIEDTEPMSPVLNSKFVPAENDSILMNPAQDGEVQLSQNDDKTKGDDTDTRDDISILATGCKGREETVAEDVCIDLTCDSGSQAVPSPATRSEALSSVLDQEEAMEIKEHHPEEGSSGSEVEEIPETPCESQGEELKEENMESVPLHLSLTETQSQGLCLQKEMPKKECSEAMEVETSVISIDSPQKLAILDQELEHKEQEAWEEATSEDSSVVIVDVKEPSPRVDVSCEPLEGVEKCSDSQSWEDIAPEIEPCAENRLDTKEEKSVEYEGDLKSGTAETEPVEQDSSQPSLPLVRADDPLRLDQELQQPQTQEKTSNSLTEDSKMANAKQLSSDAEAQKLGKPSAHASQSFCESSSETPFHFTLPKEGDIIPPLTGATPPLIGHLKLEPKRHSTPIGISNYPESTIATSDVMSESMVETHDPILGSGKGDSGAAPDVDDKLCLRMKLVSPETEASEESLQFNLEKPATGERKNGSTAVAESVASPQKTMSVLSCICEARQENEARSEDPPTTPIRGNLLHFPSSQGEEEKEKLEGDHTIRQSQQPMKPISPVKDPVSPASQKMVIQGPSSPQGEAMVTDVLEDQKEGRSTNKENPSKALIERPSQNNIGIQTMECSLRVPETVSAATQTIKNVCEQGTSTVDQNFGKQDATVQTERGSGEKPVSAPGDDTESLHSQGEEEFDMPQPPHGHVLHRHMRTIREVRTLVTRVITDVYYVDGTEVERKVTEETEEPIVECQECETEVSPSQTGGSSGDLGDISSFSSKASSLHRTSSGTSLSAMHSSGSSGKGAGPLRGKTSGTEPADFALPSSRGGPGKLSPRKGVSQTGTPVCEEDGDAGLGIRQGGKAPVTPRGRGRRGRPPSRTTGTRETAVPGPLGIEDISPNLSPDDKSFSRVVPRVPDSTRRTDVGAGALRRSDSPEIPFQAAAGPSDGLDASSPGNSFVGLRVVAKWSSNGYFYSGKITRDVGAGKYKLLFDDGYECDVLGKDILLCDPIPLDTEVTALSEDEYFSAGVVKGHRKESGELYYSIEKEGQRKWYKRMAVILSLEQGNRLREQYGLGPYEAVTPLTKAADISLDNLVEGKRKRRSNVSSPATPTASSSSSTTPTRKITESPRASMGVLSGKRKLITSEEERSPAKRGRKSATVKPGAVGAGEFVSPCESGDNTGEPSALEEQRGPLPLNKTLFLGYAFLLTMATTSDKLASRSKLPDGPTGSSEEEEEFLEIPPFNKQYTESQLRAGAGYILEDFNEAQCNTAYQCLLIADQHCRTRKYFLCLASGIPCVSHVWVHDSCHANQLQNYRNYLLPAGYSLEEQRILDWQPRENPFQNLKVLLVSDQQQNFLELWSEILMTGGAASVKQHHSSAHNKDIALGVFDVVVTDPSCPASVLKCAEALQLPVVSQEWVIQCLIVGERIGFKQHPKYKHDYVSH

Columns and labels:
Assay in all cases: affinity purification with mass spectrometry; GFP-tagged C2H2-ZF proteins as baits in inducible HEK293 cell lines, harvested 24 h after doxycycline; two biological replicates; SAINTexpress AvgP cutoff of 1
ZFP28 (human) = ZFP28 (human) (UniProt Q8NHY6)
ZNF677 (human) = ZNF677 (human) (UniProt Q86XU0)
ZNF273 (human) = ZNF273 (human) (UniProt Q14593)

- binding (ZFP28 (human)): binds
- binding (ZNF677 (human)): binds
- binding (ZNF273 (human)): binds
Substance: TP53BP1 (from UniProt Q12888 1-1972)

These are yes or no findings as the source states them, for the method shown. In cells and extracts the contact can be indirect. Here binding means that the protein was enriched with, or labelled near, the bait; the list need not be complete.
